Assay results as given in the supplement of paper PMC10735217.
The other results are listed elsewhere or left out. Repeats in this data set agree poorly, so a single value says little.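 Human kidney-derived cells stably carry a construct in which eight TEAD-binding elements drive luciferase, measured by luminescence in a drug-repurposing library screen. A hit is any compound whose signal exceeds the plate mean by more than five robust Z scores.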

System: HEK293A TEAD-LUC reporter
Assay: TEAD-luciferase reporter activity (YAP activation), robust Z score vs plate; higher = stronger YAP/TEAD activation
Settings: 24 h

SMILES	TEAD-luciferase reporter activity (compound concentration: 2 uM)	TEAD-luciferase reporter activity (compound concentration: 200 nM)	TEAD-luciferase reporter activity (compound concentration: 10 uM)
CC(C)c1cc(Oc2c(Br)cc(NC(=O)CC(=O)O)cc2Br)ccc1O [eprotirome]	inactive: -1.01	–	–
CC(C)c1cc(Oc2c(Br)cc(NC(=O)CC(=O)O)cc2Br)ccc1O [Eprotirome]	–	inactive: -1.33	inactive: 0.163
CC1=C(c2ccc(OC(=O)C(C)(C)C)cc2)[C@H](c2ccc(OCCN3CCCCC3)cc2)Oc2cc(OC(=O)C(C)(C)C)ccc21	inactive: -1.26	inactive: -0.791	inactive: 0.135
C=CC(=O)Nc1cccc(Nc2nc(Nc3ccc(OCCOC)cc3)ncc2F)c1 [spebrutinib besylate]	inactive: -1.42	inactive: -0.821	inactive: 2.09
Cc1cc(/N=N/c2ccc(S(N)(=O)=O)cc2)c(N)cc1N	inactive: -0.0256	active: 6.61	inactive: 1.01
COC[C@H]1C[C@@H](c2nc(-c3ccc4c(c3)COc3cc5c(ccc6nc([C@@H]7CC[C@H](C)N7C(=O)[C@@H](NC(=O)OC)C(C)C)[nH]c65)cc3-4)c[nH]2)N(C(=O)[C@H](NC(=O)OC)c2ccccc2)C1 [Velpatasvir]	inactive: -0.11	inactive: -1.32	inactive: -0.145
CC(C)(O)CC(C)(O)c1ccc(Cl)cc1 (centres undefined)	inactive: 0.0109	inactive: 0.559	inactive: -0.297
CN1C(=O)NC(c2ccccc2)C1=O (centres undefined)	inactive: -0.363	inactive: -0.345	inactive: 0.417
Cc1nc2cnccc2n1-c1ccc(OCc2cccc(C=Cc3ccc4ccc(Cl)cc4n3)c2)cc1	inactive: -0.292	inactive: -1.22	inactive: 1.73
CC1(C)OCCn2c1nc1c(N3CCOCC3)nc(-c3cnc(N)nc3)nc12	inactive: -0.723	inactive: -1.35	inactive: -0.703
CC[C@@H](Nc1c(Nc2cccc(C(=O)N(C)C)c2O)c(=O)c1=O)c1ccc(C)o1	inactive: -0.929	–	–
CC[C@@H](Nc1c(Nc2cccc(C(=O)N(C)C)c2O)c(=O)c1=O)c1ccc(C)o1 [Navarixin]	inactive: -0.207	inactive: 0.179	inactive: 1.66
O=C(O)C1CCCN1C(=O)C12CC3CC(CC(C3)C1)C2 (centres undefined) [1-(1-adamantylcarbonyl)proline]	inactive: -0.217	inactive: -1.34	inactive: -1.58
CC(C)Oc1ccc2c(=O)c3cc(C(=O)O)ccc3oc2c1	inactive: 0.546	inactive: 0.96	inactive: 1.55
Oc1ncc(/N=C/c2cc(Cl)cc(Cl)c2O)c(O)n1	inactive: -0.737	inactive: -0.4	inactive: 2.16
O=C(O)c1ccc(NS(=O)(=O)c2ccccc2)cc1O	inactive: -2.14	inactive: -0.785	inactive: -2.05
Cc1cc(Br)c(O)c2ncccc12	inactive: 0.772	inactive: 0.0499	inactive: 0.588
CCCC(=O)c1cc(F)ccc1OCC(O)CNC(C)(C)C (centres undefined) [butofilolol]	inactive: -0.366	inactive: -1.15	inactive: -0.323

An excerpt from above, reduced to TEAD-luciferase reporter activity (compound concentration: 200 nM) and TEAD-luciferase reporter activity (compound concentration: 2 uM):

| SMILES | TEAD-luciferase reporter activity (compound concentration: 200 nM) | TEAD-luciferase reporter activity (compound concentration: 2 uM) |
| --- | --- | --- |
| CC(C)c1cc(Oc2c(Br)cc(NC(=O)CC(=O)O)cc2Br)ccc1O [eprotirome] | – | inactive: -1.01 |
| CC(C)Oc1ccc2c(=O)c3cc(C(=O)O)ccc3oc2c1 | inactive: 0.96 | inactive: 0.546 |

(further entries)

SMILES	TEAD-luciferase reporter activity (compound concentration: 2 uM)	TEAD-luciferase reporter activity (compound concentration: 200 nM)	TEAD-luciferase reporter activity (compound concentration: 10 uM)
CC1=C\C(O)CC(=O)Cc2nc(co2)C(=O)NC(C)C(=O)OC(C(C)C)C(C)/C=C/C(=O)NC\C=C\1 (centres undefined)	inactive: -2.18	inactive: -0.448	inactive: -0.245
COc1ccc(C(=O)NC2CCCN(Cc3ccc(-c4cccc(OC)c4)cc3)C2)cc1 (centres undefined)	–	inactive: -0.184	inactive: -0.433
CCCCOc1ccc(C(=O)NC(=S)Nc2cccc(C(F)(F)F)c2)cc1	inactive: -0.783	inactive: -1.06	inactive: 0.341
CCCCCCCCCC(=O)OCCN1CCN(CCCN2c3ccccc3Sc3ccc(C(F)(F)F)cc32)CC1 [Fluphenazine decanoate]	inactive: -2.51	inactive: -1.03	inactive: -0.653
CC(=O)N1CCC2(CC1)CN(C(C)=O)Cc1ccccc1O2	–	inactive: -1.3	inactive: 0.288
Cc1ncc([N+](=O)[O-])n1CC(C)O (centres undefined) [1-(2-Methyl-5-nitro-imidazol-1-yl)-propan-2-ol]	–	inactive: -0.797	inactive: 0.594
Cc1ncc([N+](=O)[O-])n1CC(C)O (centres undefined) [secnidazole]	inactive: -0.497	–	–
O=S(=O)(N[C@H](CO)C(C(F)(F)F)C(F)(F)F)c1ccc(Cl)s1 [Begacestat]	inactive: -0.218	inactive: -0.874	inactive: 0.521
O=C1CCC(c2ccc(NC(=O)CCN3CCC(c4ccccc4)CC3)cc2)=NN1 [Altapizone]	inactive: 0.789	inactive: -0.928	inactive: -1.07
CC[C@H](C)[C@H](NC(=O)[C@H](Cc1ccccc1)NC(=O)[C@H](C)NC(=O)[C@H](CC(=O)O)NC(=O)[C@H](CCCCN)NC(=O)[C@H](CO)NC(=O)[C@@H]1CCCN1C(=O)[C@@H]1CCC(=O)N1)C(=O)NCC(=O)N[C@@H](CC(C)C)C(=O)N[C@@H](CCSC)C(N)=O [Eledoisin]	–	inactive: 0.538	inactive: 0.358
O[C@@](Cn1cnnn1)(c1ccc(F)cc1F)C(F)(F)c1ccc(-c2ccc(OCC(F)(F)F)cc2)cn1	inactive: 0.13	inactive: 1.02	inactive: 0.907
CC(C)Cc1ccc(CC(=O)O)cc1	inactive: -0.0976	inactive: -0.974	inactive: -1.61
CCCn1c(=O)c2[nH]c(C34CCC(CCC(=O)O)(CC3)CC4)nc2n(CCC)c1=O	inactive: -0.609	inactive: -0.608	inactive: -0.759
CCOc1ccc(OCC(=O)C2CCCC2)cc1	active: 5.13	inactive: 4.99	active: 6.35
COC1=CC(=O)OC1C(O)c1ccc(Cl)cc1Cl (centres undefined)	inactive: -0.949	inactive: 0.989	inactive: -0.895
Cc1cc(=O)oc2cc(O)ccc12	inactive: -0.26	inactive: -0.108	inactive: -0.449
COc1ccc(CN2CCN(CC(=O)O)CC2)c(OC)c1OC	inactive: -0.673	inactive: -2.4	inactive: 1.44
